Source: patent US8871815B2, “Therapeutic compounds” (Signature Therapeutics, Inc., priority 2007, dated 2014)
For part of these data: At least one compound was matched to its structure with a doubt left. Some entries share one result that the patent states for a list of compounds.

Key:
[1] = system: Beagle dogs; settings: all doses, bolus IV
[2] = system: alpha2, NMDA, PCP, benzodiazepine or opioid receptors; assay: Cerep Diversity Profile: other receptors; assay type: binding; settings: tested at 10 μM
[3] = Aqueous phase concentration in lipid emulsion (ultrafiltration, LC/MS/MS); assay type: physicochemical
Protocol: The concentration of Compound 1 in the aqueous phase (aqueous phase concentration) of a lipid emulsion formulation was determined.
A one percent (1%) Compound 1 formulation was formulated in accordance with Example 4, Compound 1 being prepared as described in Example 5.

[4] = system: chloride channel isolated from rat cerebral cortex (GABA ligand gated ion channel); assay type: binding; settings: tested at 10 μM
[5] = system: GABAA receptor; assay: Rat hippocampal brain slice electrophysiology assay; assay type: cell-based
[6] = system: mongrel dogs; assay: Anesthetic and hemodynamic effects in chronically instrumented mongrel dogs, total intravenous anesthesia; assay type: in vivo, dog; settings: therapeutically relevant doses
Protocol: Assessments included hemodynamic performance parameters such as blood pressure, heart rate, and cardiac output as well as clinical chemistry parameters and EEG analysis.
General anesthesia was induced in the dogs by IV administration of 7 mg/kg […], and the dogs were tracheally intubated and mechanically ventilated. General anesthesia was maintained using 2.2% end-tidal sevoflurane in oxygen. A thoracotomy was performed at the fifth left intercostal space, and heparin-filled catheters were placed in the proximal descending thoracic aorta (P50 pressure transducer Gould, Oxnard, Calif.), and in the right and left atria to provide IV access. An ultrasonic transit-time flow probe (T108, Transonic Systems, Ithaca, N.Y.) was placed around the ascending thoracic aorta. […]
The dogs were fasted overnight. […] EEG was recorded continuously during the experiment. Arterial blood gas and chemistry measures included pH, pO2, sO2, pCO2, tCO2, carbonate, potassium, sodium, and base excess, and were measured immediately following blood draws using a blood gas and chemistry analyzer (ABL-505, Radiometer, Copenhagen). […] Following stabilization, baseline measurements of EEG, hemodynamics, ECG, and blood gases were recorded. Blood samples were drawn for PK and clinical chemistry, and pressure volume loops were generated and data recorded. […]

[7] = system: male Sprague-Dawley rats; assay: Anesthetic effects in rats, bolus IV, Loss of Righting Reflex (LORR); assay type: in vivo, rat; settings: dose of at least 3.0 mg/kg
Protocol: Also measured was minimum dose to achieve LORR and maximum tolerated dose (MTD).
The ranges of doses studied were 1.9, 2.3, 3.0, 7.0, 13.7, 14.0 and 15.2 mg/kg for Compound 1 and 3.5, 4.0, 7.0 and 14.0 mg/kg for […].

[8] = system: ferrets; assay: Anti-emetic activity in ferrets (morphine sulfate induced emesis); settings: 15 min IV infusion at 1 mg/kg/min, then 0.5 mg/kg morphine sulfate sc, 6 ferrets, 45 min
Protocol: Male descented ferrets weighing 1.0-1.5 kg with vascular access ports in the jugular vein were housed on a 12/12-hour light/dark cycle under controlled temperature, with food and water provided ad libitum. On each study day, food was presented to ferrets one hour prior to dosing. Immediately prior to dosing, food and water were removed. A 1% Compound 1 formulation, prepared as described in Example 5 and formulated in accordance with Example 4, or […] was administered by IV infusion to the ferrets; see Wynn R L et al, 1993, Eur J Pharmacol 241, 42 re […] administration in ferrets. After administration of Compound 1 or […], animals were placed in clean, transparent cages (with lids) and left unrestrained for a 45-min observation period by an observer blinded to the specific treatment administered.
Episodes of retching and/or vomiting were considered separate episodes when the interval between retches and/or vomits exceeded 5 sec.
After termination of the infusion, 0.5 mg/kg morphine sulfate was administered subcutaneously and the ferrets were monitored for 45 min as described above. Six additional ferrets were administered subcutaneously 0.5 mg/kg morphine sulfate only.

[9] = system: pigs; settings: IV infusion
Protocol: Experiments were performed on commercial farm-bred swine of either sex (mean weight 33.6 kg). Anesthesia was induced with isoflurane. Intravascular access was obtained from an ear vein. Each pig was intubated and mechanically ventilated. Tissue oxygenation was monitored using continuous pulse oximetry placed on the tongue. Ventilation was monitored using an inspired/expired gas analyzer that measured oxygen, carbon dioxide, and potent inhalation agent concentrations. Ventilator settings were adjusted as needed to maintain steady state.
ECG was monitored throughout the study. Arterial blood pressure was monitored through the cannulated left femoral artery. MAP, systolic and diastolic arterial pressures and heart rate were collected every 5 seconds. An internal jugular vein was cannulated with a pulmonary artery catheter for thermodilution estimates of cardiac output and blood temperature. Body temperature was maintained at 37° C. Instrumentation for EEG monitoring was accomplished using an adhesive electrode array over the fronto-occipital regions (Aspect Medical. Norwood, Mass., USA).
Metabolic and hemodynamic parameters for each group were compared at multiple time points using an unpaired two-tailed Student t test. To account for multiple comparisons and maintain the probability of a type I error below 0.05, P values less than 0.025 were considered significant.

CC[C@@H](C)c1cccc([C@@H](C)CC)c1O [(meso), (meso)-2,6-di-sec-butylphenol]
time to induction of anesthesia [1]: ≤ 1 min

CC[C@H](C)c1cccc([C@@H](C)CC)c1O (single isomer, unassigned) [(S,S)]
time to induction of anesthesia [1]: ≤ 1 min

CC[C@@H](C)c1cccc([C@H](C)CC)c1O [Compound 1]
effects at alpha2, NMDA, PCP, benzodiazepine or opioid receptors [2]: No significant effects | aqueous phase concentration ([3]; 1% lipid emulsion formulation): 0.38 ± 0.02 µg/mL | reduction in the aqueous phase concentration compared to propofol in DIPRIVAN ([3]; 1% lipid emulsions): 91% | reduction in the aqueous phase concentration compared to propofol in identical formulations ([3]; 1% lipid emulsions): 94% | reduction in the aqueous phase concentration compared to propofol in identical formulations ([3]; 1% lipid emulsions, listed as (R,R)-2,6-di-sec-butylphenol): more than 90% | time to induction of anesthesia [1]: ≤ 1 min | inhibition of control binding (picrotoxinin binding) [4]: greater than 30% | potentiation of the muscimol-mediated response at the GABAA receptor [5]: fully potentiated the muscimol-mediated response | EEG anesthetic potency compared to propofol [6]: greater anesthetic potency effect | Onset of LORR [7]: less than 15 sec | retches [8]: did not produce any episodes of vomiting or retching | vomits [8]: did not produce any episodes of vomiting or retching | maximal suppression of BIS [9]: < 10
